# Library compounds against nucleic acid targets

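Each compound is printed as two spots on a slide made to bind it covalently, so it has no test concentration; the read-out is fluorescence of the bound, labelled oligonucleotide. The data file lists only calls. An earlier report of the laboratory on the PreQ1, TPP and SAM-II riboswitches (doi:10.1038/s41467-019-09493-3) used 1 µM RNA for 2 h and required a mean Z-score above 3 (spot signal-to-noise against the whole library), a score well above that on a control array, and duplicate spots agreeing (coefficient of variation under 100); it then also set aside compounds that hit other targets, which this list keeps. The cut-offs behind this list may differ. A missing hit is not proof of no binding, and a hit is not a measured affinity.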 Key: hit = hit, no hit = tested without a hit. Compounds were drawn at random from those tested, without regard to their results. A dash means that no call is listed here.

Targets, with sequences 5′ to 3′:
T1: SAM-II riboswitch RNA pseudoknot, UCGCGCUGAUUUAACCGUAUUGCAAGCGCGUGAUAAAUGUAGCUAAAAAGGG. Hit rate about 1% of about 21,000 compounds.
T2: TPP riboswitch RNA three-way junction, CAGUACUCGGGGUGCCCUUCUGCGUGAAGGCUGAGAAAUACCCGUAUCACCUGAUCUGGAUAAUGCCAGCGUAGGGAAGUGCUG. Hit rate about 0.7% of about 24,000 compounds.
T3: PreQ1 riboswitch RNA pseudoknot, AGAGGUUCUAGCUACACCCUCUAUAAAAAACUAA. From B. subtilis. Hit rate about 0.7% of about 24,000 compounds.

| # | compound | T1 | T2 | T3 |
|---|---|---|---|---|
| 1 | `Cc1ccc(Nc2c(-c3ccccc3)nc3cnccn23)c(Br)c1` | - | no hit | no hit |
| 2 | `Cc1cnc(CNC(=O)CC2COCCN2)cn1` (centres unmarked) | no hit | no hit | no hit |
| 3 | `CCC(NCCS(=O)(=O)NC)C(=O)Nc1ccccc1` (centres unmarked) | no hit | no hit | no hit |
| 4 | `Cc1cc(O)c2c3c4c(cc(O)c13)C(C)(C)C(=O)c1c(O)cc(O)c(c1-4)C2=O` | no hit | no hit | no hit |
| 5 | `Cc1cc(NC2CCCCC2)ncn1` | - | no hit | no hit |
| 6 | `O=C(Nc1ccccc1)C1=C(NCCO)c2ccccc2S1(=O)=O` | - | no hit | no hit |
| 7 | `Cc1nc2cc(C(=O)NC(C)c3nnc4n3CCNCC4)ccc2[nH]1` (centres unmarked) | no hit | no hit | no hit |
| 8 | `Cc1cccc(N2CCc3c2nc2ccc(Br)cc2c3N)c1` | no hit | no hit | no hit |
| 9 | `Cn1c(SCC(=O)c2sc3ccccc3c2O)nnc1-c1ccc(N)cc1` | no hit | no hit | no hit |
| 10 | `CNC(=O)c1ccc(CNc2nc(CCN)nc3sc(C)c(C)c23)o1` | no hit | no hit | no hit |
| 11 | `COC(=O)c1sc(N2CCCC(C)C2)nc1N` (centres unmarked) | no hit | no hit | no hit |
| 12 | `COc1ccc(CNc2ncc(-c3ccc(F)cc3)n2C)cc1OC` | no hit | no hit | no hit |
| 13 | `O=c1cc2oc3cc(O)c(O)cc3c(-c3ccccc3O)c-2cc1O` | no hit | no hit | no hit |
| 14 | `NCc1ccc(-c2ncnn2Cc2c(F)cccc2Cl)cc1` | no hit | no hit | no hit |
| 15 | `CCOC(=O)c1cnc2c(C(F)(F)F)cccc2c1NCCc1ccccc1` | no hit | no hit | no hit |
| 16 | `Nc1nonc1C(=O)NCCNCc1ccc(-c2ccccc2F)o1` | - | no hit | no hit |
| 17 | `C=CCc1c(C)nc(N)nc1N1CCC(CCn2ccnc2C)CC1` | no hit | no hit | no hit |
| 18 | `Nc1nc(NCC2COc3ccccc3C2)c2nc[nH]c2n1` (centres unmarked) | no hit | no hit | no hit |
| 19 | `CN(C)S(=O)(=O)c1cccc(N)c1` | - | no hit | no hit |
| 20 | `Cc1cc(=S)[nH]c(=S)[nH]1` | no hit | no hit | no hit |
| 21 | `Nc1cc(O)nc(CCNC(=O)c2cn(-c3ccccc3)nn2)n1` | no hit | no hit | no hit |
| 22 | `Cn1c(=O)n(C)c2cc(CNc3ccc4c(c3)OCO4)ccc21` | - | no hit | no hit |
| 23 | `Cc1ccc2[nH]c3c(c2c1)CCCC3CN` (centres unmarked) | no hit | no hit | no hit |
| 24 | `CC(O)CNc1nc2c(c(=O)n(C)c(=O)n2C)n1Cc1cccc(Cl)c1` (centres unmarked) | no hit | no hit | no hit |
| 25 | `Cc1cc(NCCCn2ccnc2)n2nc(-c3ccccc3)c(C)c2n1` | - | no hit | no hit |
| 26 | `COc1cc(C(=O)N2CCn3nc(CCC(=O)NCCO)cc3C2)ccn1` | no hit | no hit | no hit |
| 27 | `COc1c(CC(O)CO)cc2c(c1OC)OCO2` (centres unmarked) | no hit | no hit | no hit |
| 28 | `Cc1ccc(C(=O)NCCNc2ccc(C(F)(F)F)cc2[N+](=O)[O-])cc1` | no hit | no hit | no hit |
| 29 | `C=Cc1ccc(C(=O)N2CC[C@@H](CNC(=O)CC(C)C)[C@H](O)C2)cc1` | no hit | no hit | no hit |
| 30 | `CCCc1cc(N2CCC(NCCCc3ccc(O)cc3)CC2)nc(C)n1` | no hit | no hit | no hit |
| 31 | `CCOC(=O)c1c(N)sc2c(OC)c(Br)ccc12` | no hit | no hit | no hit |
| 32 | `COC(=O)c1c(C)sc(C(O)C(=O)c2ccc(Cl)cc2)c1O` (centres unmarked) | no hit | no hit | no hit |
| 33 | `Cn1c(-c2ccccc2)cnc1NCc1ccc(F)cc1F` | no hit | no hit | no hit |
| 34 | `Cc1ncc2c(c1CNC(=O)Cc1c(C)[nH]c3c(F)cccc13)CCNC2` | no hit | no hit | no hit |
| 35 | `CC1(C)Cc2nc(N3CCC(O)CC3)ncc2C(Nc2cnccn2)C1` (centres unmarked) | no hit | no hit | no hit |
| 36 | `COCCCN[C@H]1CS(=O)(=O)C[C@@H]1S(=O)(=O)c1ccc(OC)cc1` | - | no hit | no hit |
| 37 | `O=C(NCCc1nnc2n1CCNCC2)c1ccc(-c2ccccc2)[nH]1` | no hit | no hit | no hit |
| 38 | `CCC1(C)Cc2c(sc3nc(SC)nc(NCCN(C)C)c23)CO1` (centres unmarked) | no hit | no hit | no hit |
| 39 | `Cc1nc2ccccn2c1-c1csc(Nc2cccc(C(=O)O)c2)n1` | no hit | no hit | no hit |
| 40 | `O=C(NC[C@@H]1C[C@H](F)CN1)c1sc2cccc(F)c2c1Cl` | no hit | no hit | no hit |
| 41 | `Clc1cc(Cl)cc(CNc2ncncc2-c2ccc3c(c2)OCO3)c1` | no hit | no hit | no hit |
| 42 | `O=S1(=O)CCC(Cc2nc(COc3ccccc3)nn2CCO)CC1` | no hit | no hit | no hit |
| 43 | `Cc1cc(N)n(Cc2nc(C3CCOC3)no2)n1` (centres unmarked) | no hit | no hit | no hit |
| 44 | `NC1=C2C(=O)c3ccccc3C(=O)C2=C(N)CC1` | no hit | no hit | no hit |
| 45 | `C=CCC1(CO)CCCN(S(=O)(=O)c2ccccc2)C1` (centres unmarked) | no hit | no hit | no hit |
| 46 | `CCC(O)C1CCN(C(=O)Nc2nc(-c3ccccc3)ns2)CC1` (centres unmarked) | no hit | no hit | no hit |
| 47 | `Cc1ccc(C2C(C#N)=C(N)Oc3c2c(=O)n(C)c2ccccc32)cc1` (centres unmarked) | no hit | no hit | no hit |
| 48 | `O=c1n(CC2CO2)c(=O)n(CC2CO2)c(=O)n1CC1CO1` (centres unmarked) | no hit | no hit | no hit |
| 49 | `CCCn1c(SCCO)nc2c(c1=O)C1(CCCCC1)Cc1ccccc1-2` | - | no hit | no hit |
| 50 | `COc1ccccc1CNC(=O)c1nn(-c2ccccc2C)nc1CO` | - | no hit | no hit |
| 51 | `CC(CCn1cccn1)NCC(=O)Nc1ccc(Cl)cc1F` (centres unmarked) | no hit | no hit | no hit |
| 52 | `O=C1C=C(N(CCO)CCO)C2(CCCCC2)O1` | no hit | no hit | no hit |
| 53 | `NS(=O)(=O)c1ccc(-c2cc(NCCO)nc3[nH]ccc23)s1` | no hit | no hit | no hit |
| 54 | `CCSc1ccccc1NC(=O)N1CCc2[nH]nc(CO)c2C1` | no hit | no hit | no hit |
| 55 | `Nc1ccc2nc(-c3ccccc3Br)sc2c1` | no hit | no hit | no hit |
| 56 | `Cc1ccc(F)c(Cn2ccnc2-c2ccc(C#CCO)s2)c1F` | no hit | no hit | no hit |
| 57 | `O=C(N[C@@H]1C[C@H]1c1ccccc1)c1ccc2[nH]c(CO)nc2c1` | no hit | no hit | no hit |
| 58 | `Cc1nn2c(NC(C)C)cc(C(C)(C)C)nc2c1-c1ccc(F)cc1` | - | no hit | no hit |
| 59 | `Cc1ccc(C2=CC(c3ccccc3)n3nc(CCCO)nc3N2)cc1` (centres unmarked) | no hit | no hit | no hit |
| 60 | `COc1ccc2c(c1)-c1c(ssc1=S)C(C)(C)N2` | no hit | no hit | no hit |
| 61 | `CCOC(=O)C1=C(N)OC2=C(C(=O)CC(C)(C)C2)C1c1ccc(O)cc1` (centres unmarked) | no hit | no hit | no hit |
| 62 | `COc1ccc(C2c3c(-c4cc(C)ccc4O)n[nH]c3C(=O)N2CCCO)cc1OC` (centres unmarked) | - | no hit | no hit |
| 63 | `Cc1cccc(OCC(O)CNC(=O)c2ccccc2C(=O)O)c1` (centres unmarked) | no hit | no hit | no hit |
| 64 | `CCNCc1ccc(-c2ccc(C(=O)OC)cc2)o1` | no hit | no hit | no hit |
| 65 | `COc1ccccc1NS(=O)(=O)c1cc(Br)cnc1N` | - | no hit | no hit |
| 66 | `CCc1nc(NCCO)c(C#N)c2c1CCCC2` | no hit | no hit | no hit |
| 67 | `CC(=O)c1c(Nc2cc(Cl)ccc2C)oc(C)cc1=O` | no hit | no hit | no hit |
| 68 | `CCN(CC)Cc1cnc2c(C(=O)NCc3ccc(CN)cc3)cnn2c1` | no hit | no hit | no hit |
| 69 | `OCc1ccc(-c2nc(C3CCOC3)no2)cc1` (centres unmarked) | no hit | no hit | no hit |
| 70 | `CN1CCN(CCCNc2nc(CO)nc3ccccc23)CC1` | no hit | no hit | no hit |
| 71 | `COc1ccccc1CNCc1ccc(C(F)(F)F)cc1` | no hit | no hit | no hit |
| 72 | `Cc1cc(F)cc(NC(=O)NC[C@@H]2CCCN2)c1` | no hit | no hit | no hit |

Repeated from the top, 4 entries:

compound	T1	T2	T3
Cc1ccc(Nc2c(-c3ccccc3)nc3cnccn23)c(Br)c1	-	no hit	no hit
Cc1cnc(CNC(=O)CC2COCCN2)cn1 (centres unmarked)	no hit	no hit	no hit
CCC(NCCS(=O)(=O)NC)C(=O)Nc1ccccc1 (centres unmarked)	no hit	no hit	no hit
Cc1cc(O)c2c3c4c(cc(O)c13)C(C)(C)C(=O)c1c(O)cc(O)c(c1-4)C2=O	no hit	no hit	no hit

Source: the ROBIN nucleic acid binder screens (doi:10.1002/anie.202211358).